Reference: article PMC11479884
No constants are given. Whether binding was seen depends on the method and setting. In cells and extracts the contact can be indirect. Some entries that bind do so weakly or less than the wild type.

The chains behind the UniProt entries cited, without tags or fusion partners.
UniProt E9Q4K7: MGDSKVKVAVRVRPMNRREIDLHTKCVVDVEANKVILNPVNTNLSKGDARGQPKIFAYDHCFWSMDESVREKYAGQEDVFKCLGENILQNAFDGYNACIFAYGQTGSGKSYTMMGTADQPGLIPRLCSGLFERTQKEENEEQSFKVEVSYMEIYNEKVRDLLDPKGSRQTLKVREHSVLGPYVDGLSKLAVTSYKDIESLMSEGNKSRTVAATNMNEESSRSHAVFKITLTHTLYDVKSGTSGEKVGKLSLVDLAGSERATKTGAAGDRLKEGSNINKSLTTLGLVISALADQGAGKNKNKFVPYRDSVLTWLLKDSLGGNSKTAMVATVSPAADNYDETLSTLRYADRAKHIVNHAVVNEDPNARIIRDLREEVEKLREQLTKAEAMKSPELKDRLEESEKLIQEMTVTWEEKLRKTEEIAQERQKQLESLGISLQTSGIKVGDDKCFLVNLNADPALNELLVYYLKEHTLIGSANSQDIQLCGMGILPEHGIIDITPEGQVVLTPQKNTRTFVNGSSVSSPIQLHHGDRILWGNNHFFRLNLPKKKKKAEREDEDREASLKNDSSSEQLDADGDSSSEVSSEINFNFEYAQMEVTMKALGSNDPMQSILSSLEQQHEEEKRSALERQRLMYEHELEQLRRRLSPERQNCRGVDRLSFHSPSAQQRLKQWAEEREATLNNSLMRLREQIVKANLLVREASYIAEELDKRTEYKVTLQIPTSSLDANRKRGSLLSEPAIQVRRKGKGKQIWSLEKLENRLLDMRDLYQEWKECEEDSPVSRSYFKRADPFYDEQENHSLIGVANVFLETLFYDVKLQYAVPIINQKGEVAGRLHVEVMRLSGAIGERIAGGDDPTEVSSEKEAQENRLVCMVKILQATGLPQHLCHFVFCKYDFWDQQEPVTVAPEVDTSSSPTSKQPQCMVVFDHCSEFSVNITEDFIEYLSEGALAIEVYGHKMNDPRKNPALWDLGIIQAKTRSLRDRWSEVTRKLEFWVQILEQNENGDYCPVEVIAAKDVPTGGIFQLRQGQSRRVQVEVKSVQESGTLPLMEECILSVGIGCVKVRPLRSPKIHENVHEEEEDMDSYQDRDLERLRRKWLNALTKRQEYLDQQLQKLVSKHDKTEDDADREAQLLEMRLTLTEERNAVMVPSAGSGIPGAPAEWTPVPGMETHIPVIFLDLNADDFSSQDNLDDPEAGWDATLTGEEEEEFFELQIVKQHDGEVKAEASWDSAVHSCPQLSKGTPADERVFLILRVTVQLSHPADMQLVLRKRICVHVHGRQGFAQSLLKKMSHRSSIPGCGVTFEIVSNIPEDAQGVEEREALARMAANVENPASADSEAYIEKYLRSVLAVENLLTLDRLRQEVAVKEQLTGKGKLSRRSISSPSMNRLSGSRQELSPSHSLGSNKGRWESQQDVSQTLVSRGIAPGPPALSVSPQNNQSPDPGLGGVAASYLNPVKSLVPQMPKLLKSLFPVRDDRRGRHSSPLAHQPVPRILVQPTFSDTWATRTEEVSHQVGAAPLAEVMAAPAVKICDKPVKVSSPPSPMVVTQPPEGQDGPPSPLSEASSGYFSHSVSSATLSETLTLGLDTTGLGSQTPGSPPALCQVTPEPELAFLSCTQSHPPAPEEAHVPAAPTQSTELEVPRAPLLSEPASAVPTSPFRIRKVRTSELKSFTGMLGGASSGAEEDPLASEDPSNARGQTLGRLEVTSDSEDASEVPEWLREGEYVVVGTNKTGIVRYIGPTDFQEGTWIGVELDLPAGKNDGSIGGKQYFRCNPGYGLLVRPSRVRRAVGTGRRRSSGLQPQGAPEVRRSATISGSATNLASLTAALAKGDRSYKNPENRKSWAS

Biological target: KIF13B, a kinesin protein (mouse (endogenous in primary keratinocytes)) (UniProt E9Q4K7)
Experiment: co-IP; anti-KIF13B antibody (or anti-IgG antibody) on protein A-G magnetic beads, 4°C overnight; cell lysates (1 mg of protein) of SLIGRL-treated primary keratinocytes of WT or Par2-/- mice, room temperature 2 hours; blot with anti-P115 antibody

binding: binds
B1: Golgi vesicle transporter protein P115 (protein, UniProt Q9Z1Z0 1-959)
chain: MNFLRGVMGGQSAGPQHTEAETIQKLCDRVASSTLLDDRRNAVRALKSLSKKYRLEVGIQAMEHLIHVLQTDRSDSEIIAYALDTLYNIISNDEEEELEENSTRQSEDLGSQFTEIFIKQPENVTLLLSLLEEFDFHVRWPGVRLLTSLLKQLGPPVQQIILVSPMGVSRLMDLLADSREIIRNDGVLLLQALTRSNGAIQKIVAFENAFERLLDIITEEGNSDGGIVVEDCLILLQNLLKTNNSNQNFFKEGSYIQRMKPWFEVGEENSGWSAQKVTNLHLMLQLVRVLVSPTNPPGATSSCQKAMFQCGLLQQLCTILMATGIPADILTETINTVSEVIRGCQVNQDYFASVNAPSNPPRPAIVVLLMSMVNERQPFVLRCAVLYCFQCFLYKNEKGQGEIVATLLPSTIDATGNSVSAGQLLCGGLFSTDSLSNWCAAVALAHALQGNATQKEQLLRVQLATSIGNPPVSLLQQCTNILSQGSKIQTRVGLLMLLCTWLSNCPIAVTHFLHNSANVPFLTGQIAENLGEEEQLVQGLCALLLGISIYFNDNSLENYTKEKLKQLIEKRIGKENFIEKLGFISKHELYSRASQKPQPNFPSPEYMIFDHEFTKLVKELEGVITKAIYKSSEEDKKEEEVKKTLEQHDNIVTHYKNMIREQDLQLEELKQQVSTLKCQNEQLQTAVTQQASQIQQHKDQYNLLKVQLGKDNHHQGSHGDGAQVNGIQPEEISRLREEIEELKSQQALLQGQLAEKDSLIENLKSSQASGMSEQASATCPPRDPEQVAELKQELTALKSQLCSQSLEITRLQTENCELLQRAETLAKSVPVEGESEHVSAAKTTDVEGRLSALLQETKELKNEIKALSEERTAIQKQLDSSNSTIAILQTEKDKLDLEVTDSKKEQDDLLVLLADQDQKILSLKSKLKDLGHPVEEEDESGDQEDDDDEIDDGDKDQDI
